Experiments:
[1] = Direct lanthanide complexation with empty cages; details: for abundance - 1 week: Supp. Fig. 11B; for abundance - 1 hour: Supp. Fig. 11A
[2] = LC-MS/MS method validation (LOD, LOQ) for HO2CPh{Ln} tags
[3] = 1, 2 and 5 nM triplicate solutions in presence of mouse liver lysate (matrix blank), HO2CPh{Y} internal standard, 10 mM NH4OAc diluent, n = 9 points

Row | SMILES | abundance - 1 week ([1]; direct complexation with CaII) [%] | abundance - 1 week ([1]; direct complexation with CeIII) [%] | abundance - 1 week ([1]; direct complexation with DyIII) [%] | abundance - 1 week ([1]; direct complexation with ErIII) [%] | abundance - 1 week ([1]; direct complexation with EuIII) [%] | abundance - 1 week ([1]; direct complexation with GdIII) [%] | abundance - 1 week ([1]; direct complexation with HoIII) [%] | abundance - 1 week ([1]; direct complexation with LaIII) [%] | abundance - 1 week ([1]; direct complexation with LuIII) [%] | abundance - 1 week ([1]; direct complexation with NdIII) [%] | abundance - 1 week ([1]; direct complexation with PrIII) [%] | abundance - 1 week ([1]; direct complexation with ScIII) [%] | abundance - 1 week ([1]; direct complexation with SmIII) [%] | abundance - 1 week ([1]; direct complexation with TbIII) [%] | abundance - 1 week ([1]; direct complexation with TmIII) [%] | abundance - 1 week ([1]; direct complexation with YIII) [%] | abundance - 1 week ([1]; direct complexation with YbIII) [%] | abundance - 1 hour ([1]; direct complexation with CaII) [%] | abundance - 1 hour ([1]; direct complexation with CeIII) [%] | abundance - 1 hour ([1]; direct complexation with DyIII) [%] | also measured
1 | O=C(O)CN1CCN2CCN(CC(=O)O)CCN(CC1)Cc1cccc(n1)-c1cn(nn1)Cc1cc(-c3ccccc3)cc(n1)C2 [1,4-cz-PhL^1] | 76.6 | 1.5 | 29.2 | 26.8 | 47.9 | 47.9 | 27.7 | 89.7 | 36.0 | 88.9 | 91.7 | 97.5 | 60.5 | 31.2 | 24.6 | 41.3 | 37.5 |  |  |  | 
2 | O=C([O-])CN1CCN2CCN(CC(=O)[O-])CCN(CC1)Cc1cccc(n1)-c1cn(nn1)Cc1cc(-c3ccccc3)cc(n1)C2.[Ca+2] [1,4-cz-[Ca(PhL1)]] | 21.0 | 0.0 | 0.6 | 0.5 | 0.8 | 0.8 | 0.6 | 2.5 | 0.7 | 1.3 | 1.6 | 1.0 | 0.8 | 0.6 | 0.4 | 1.0 | 0.5 |  |  |  | 
3 | O=C(O)CN1CCN2CCN(CC(=O)O)CCN(CC1)Cc1cccc(n1)-c1cnnn1Cc1cc(-c3ccccc3)cc(n1)C2 [1,5-cz-PhL^1] |  |  |  |  |  |  |  |  |  |  |  |  |  |  |  |  |  | 2.7 | 76.4 | 83.8 | abundance - 1 hour ([1]; direct complexation with ErIII): 87.7%; abundance - 1 hour ([1]; direct complexation with EuIII): 84.9%; abundance - 1 hour ([1]; direct complexation with GdIII): 80.3%; abundance - 1 hour ([1]; direct complexation with HoIII): 81.6%; abundance - 1 hour ([1]; direct complexation with LaIII): 82.2%; abundance - 1 hour ([1]; direct complexation with LuIII): 85.8%; abundance - 1 hour ([1]; direct complexation with NdIII): 79.1%; abundance - 1 hour ([1]; direct complexation with PrIII): 81.1%; abundance - 1 hour ([1]; direct complexation with ScIII): 80.6%; abundance - 1 hour ([1]; direct complexation with SmIII): 82.8%; abundance - 1 hour ([1]; direct complexation with TbIII): 85.2%; abundance - 1 hour ([1]; direct complexation with TmIII): 85.6%; abundance - 1 hour ([1]; direct complexation with YIII): 87.2%; abundance - 1 hour ([1]; direct complexation with YbIII): 85.4%
4 | O=C([O-])CN1CCN2CCN(CC(=O)[O-])CCN(CC1)Cc1cccc(n1)-c1cnnn1Cc1cc(-c3ccc(C(=O)O)cc3)cc(n1)C2.[Lu+3] [HO2CPh{Lu}] |  |  |  |  |  |  |  |  |  |  |  |  |  |  |  |  |  |  |  |  | accuracy: R (recovery) ([2]; 10 nM pentaplicate solutions in mouse liver matrix blank, HO2CPh{Y} internal standard, n = 5): 101.56%; accuracy: u(R) (recovery uncertainty) ([2]; 10 nM pentaplicate solutions in mouse liver matrix blank, n = 5): 7.4%; limit of detection (LOD) [2, 3]: 0.57 nM; limit of quantification (LOQ) [2, 3]: 1.70 nM; linearity: linear ([2]; F-test against Fcrit, duplicate calibration solutions): yes; linearity: F ([2]; F-test, duplicate calibration solutions, Fcrit 3.97 (Lu), 3.58 (Tm)): 0.07; repeatability (precision): repeatable ([2]; c 50.0 nM, pentaplicate solutions in mouse liver matrix blank): yes; repeatability (precision): rel. std. dev. ([2]; c 50.0 nM, pentaplicate solutions in mouse liver matrix blank, HO2CPh{Y} internal standard): 3.3%; accuracy: accurate ([2]; t-test against tcrit 2.78, 10 nM pentaplicate solutions): yes; accuracy: t ([2]; t-test, 10 nM pentaplicate solutions, tcrit 2.78): 0.21
5 | O=C([O-])CN1CCN2CCN(CC(=O)[O-])CCN(CC1)Cc1cccc(n1)-c1cnnn1Cc1cc(-c3ccccc3)cc(n1)C2.[Ca+2] [Ph{Ca}] |  |  |  |  |  |  |  |  |  |  |  |  |  |  |  |  |  | 96.3 | 19.3 | 14.6 | abundance - 1 hour ([1]; direct complexation with ErIII): 10.4%; abundance - 1 hour ([1]; direct complexation with EuIII): 13.3%; abundance - 1 hour ([1]; direct complexation with GdIII): 17.9%; abundance - 1 hour ([1]; direct complexation with HoIII): 16.8%; abundance - 1 hour ([1]; direct complexation with LaIII): 15.5%; abundance - 1 hour ([1]; direct complexation with LuIII): 13.0%; abundance - 1 hour ([1]; direct complexation with NdIII): 18.8%; abundance - 1 hour ([1]; direct complexation with PrIII): 16.9%; abundance - 1 hour ([1]; direct complexation with ScIII): 18.0%; abundance - 1 hour ([1]; direct complexation with SmIII): 15.3%; abundance - 1 hour ([1]; direct complexation with TbIII): 12.9%; abundance - 1 hour ([1]; direct complexation with TmIII): 12.9%; abundance - 1 hour ([1]; direct complexation with YIII): 11.8%; abundance - 1 hour ([1]; direct complexation with YbIII): 11.7%
